The Kinase Knowledgebase extract (Sharma et al. 2016)

By UniProt entry, the sequences of proteins in these tests, tags left out. Where a name states a change or a piece, a line headed by the entry shows the natural chain unless it says otherwise.
UniProt P42338: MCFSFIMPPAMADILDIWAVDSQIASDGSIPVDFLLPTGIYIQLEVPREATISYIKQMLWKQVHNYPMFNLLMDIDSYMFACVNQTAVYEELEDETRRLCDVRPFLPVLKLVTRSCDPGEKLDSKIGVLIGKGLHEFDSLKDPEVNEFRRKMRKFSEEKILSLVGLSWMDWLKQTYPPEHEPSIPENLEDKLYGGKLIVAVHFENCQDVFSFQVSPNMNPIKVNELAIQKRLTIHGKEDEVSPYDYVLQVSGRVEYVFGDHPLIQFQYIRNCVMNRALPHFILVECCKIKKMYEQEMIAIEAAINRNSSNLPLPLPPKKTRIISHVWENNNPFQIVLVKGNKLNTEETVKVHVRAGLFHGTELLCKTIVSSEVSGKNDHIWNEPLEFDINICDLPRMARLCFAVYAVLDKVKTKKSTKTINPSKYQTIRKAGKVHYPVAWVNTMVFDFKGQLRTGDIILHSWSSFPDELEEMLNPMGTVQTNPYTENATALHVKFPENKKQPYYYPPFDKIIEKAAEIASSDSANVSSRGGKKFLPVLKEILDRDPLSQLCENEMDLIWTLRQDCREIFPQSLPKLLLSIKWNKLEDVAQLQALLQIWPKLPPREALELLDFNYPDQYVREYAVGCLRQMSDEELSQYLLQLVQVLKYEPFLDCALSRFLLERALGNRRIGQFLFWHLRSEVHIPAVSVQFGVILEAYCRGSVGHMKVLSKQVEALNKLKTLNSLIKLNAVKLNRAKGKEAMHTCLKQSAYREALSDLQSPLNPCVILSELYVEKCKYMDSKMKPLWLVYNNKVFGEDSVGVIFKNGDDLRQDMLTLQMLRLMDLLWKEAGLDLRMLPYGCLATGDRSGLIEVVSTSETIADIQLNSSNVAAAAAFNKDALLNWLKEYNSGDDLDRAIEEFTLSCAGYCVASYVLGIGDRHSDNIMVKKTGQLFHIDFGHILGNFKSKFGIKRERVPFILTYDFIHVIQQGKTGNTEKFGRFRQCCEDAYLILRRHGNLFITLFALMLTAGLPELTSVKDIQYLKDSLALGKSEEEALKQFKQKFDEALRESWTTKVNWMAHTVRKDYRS

Target: PIK3CB (Human) (UniProt P42338)

| IC50 | Compound |
| --- | --- |
| 1000 to 50000 nM | COc1cc(-c2nn(C(C)C)c3ncnc(N)c23)ccc1O |
| 1000 to 50000 nM | CC(C)n1nc(-c2ccc(C(N)=O)c(Cl)c2)c2c(N)ncnc21 |
| < 1000 nM | Nc1ncnc2c1c(-c1ccc(Cl)c(O)c1)nn2[C@@H]1CCNC1 |
